Laboratory results published in the supplement of paper PMC10849652.
The list shows a part of the results.

The chains behind the UniProt entries cited, without tags or fusion partners. Where a name states a change or a piece, a line headed by the entry shows the natural chain unless it says otherwise.
UniProt Q96JJ7: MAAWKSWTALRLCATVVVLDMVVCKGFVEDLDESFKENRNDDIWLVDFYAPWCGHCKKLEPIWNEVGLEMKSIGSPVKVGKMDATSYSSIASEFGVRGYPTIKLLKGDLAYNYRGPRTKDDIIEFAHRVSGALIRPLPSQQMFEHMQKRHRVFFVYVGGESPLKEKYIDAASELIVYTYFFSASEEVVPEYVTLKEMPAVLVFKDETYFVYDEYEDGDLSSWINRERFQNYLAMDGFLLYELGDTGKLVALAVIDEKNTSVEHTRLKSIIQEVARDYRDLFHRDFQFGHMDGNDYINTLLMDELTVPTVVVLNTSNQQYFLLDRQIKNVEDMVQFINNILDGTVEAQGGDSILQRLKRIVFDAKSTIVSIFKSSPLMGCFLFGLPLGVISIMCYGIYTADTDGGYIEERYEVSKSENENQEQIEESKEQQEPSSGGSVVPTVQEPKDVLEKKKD
UniProt Q9H497: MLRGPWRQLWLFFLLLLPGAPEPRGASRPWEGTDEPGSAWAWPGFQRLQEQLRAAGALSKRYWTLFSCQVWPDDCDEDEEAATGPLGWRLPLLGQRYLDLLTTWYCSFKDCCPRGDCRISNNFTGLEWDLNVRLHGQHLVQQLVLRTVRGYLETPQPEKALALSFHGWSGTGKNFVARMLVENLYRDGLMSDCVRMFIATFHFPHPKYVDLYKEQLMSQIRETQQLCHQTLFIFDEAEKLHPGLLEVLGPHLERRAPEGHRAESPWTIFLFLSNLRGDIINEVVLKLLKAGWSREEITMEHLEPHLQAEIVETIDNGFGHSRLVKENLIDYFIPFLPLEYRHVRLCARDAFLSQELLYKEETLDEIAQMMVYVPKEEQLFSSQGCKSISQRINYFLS
UniProt O14773: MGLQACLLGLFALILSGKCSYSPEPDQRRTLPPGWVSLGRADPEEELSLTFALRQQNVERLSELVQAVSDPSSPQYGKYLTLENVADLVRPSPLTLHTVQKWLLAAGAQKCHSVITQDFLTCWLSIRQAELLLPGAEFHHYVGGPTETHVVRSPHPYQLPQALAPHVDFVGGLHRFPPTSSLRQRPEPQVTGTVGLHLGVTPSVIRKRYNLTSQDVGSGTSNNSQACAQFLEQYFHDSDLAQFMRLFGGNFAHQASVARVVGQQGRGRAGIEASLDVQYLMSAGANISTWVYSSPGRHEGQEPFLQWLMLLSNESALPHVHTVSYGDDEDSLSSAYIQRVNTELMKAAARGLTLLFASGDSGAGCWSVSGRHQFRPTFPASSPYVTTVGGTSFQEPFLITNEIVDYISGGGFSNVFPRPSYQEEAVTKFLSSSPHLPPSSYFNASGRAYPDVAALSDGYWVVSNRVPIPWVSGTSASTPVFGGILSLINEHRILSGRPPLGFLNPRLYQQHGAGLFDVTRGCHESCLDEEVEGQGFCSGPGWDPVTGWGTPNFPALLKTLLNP
UniProt Q9UKE5: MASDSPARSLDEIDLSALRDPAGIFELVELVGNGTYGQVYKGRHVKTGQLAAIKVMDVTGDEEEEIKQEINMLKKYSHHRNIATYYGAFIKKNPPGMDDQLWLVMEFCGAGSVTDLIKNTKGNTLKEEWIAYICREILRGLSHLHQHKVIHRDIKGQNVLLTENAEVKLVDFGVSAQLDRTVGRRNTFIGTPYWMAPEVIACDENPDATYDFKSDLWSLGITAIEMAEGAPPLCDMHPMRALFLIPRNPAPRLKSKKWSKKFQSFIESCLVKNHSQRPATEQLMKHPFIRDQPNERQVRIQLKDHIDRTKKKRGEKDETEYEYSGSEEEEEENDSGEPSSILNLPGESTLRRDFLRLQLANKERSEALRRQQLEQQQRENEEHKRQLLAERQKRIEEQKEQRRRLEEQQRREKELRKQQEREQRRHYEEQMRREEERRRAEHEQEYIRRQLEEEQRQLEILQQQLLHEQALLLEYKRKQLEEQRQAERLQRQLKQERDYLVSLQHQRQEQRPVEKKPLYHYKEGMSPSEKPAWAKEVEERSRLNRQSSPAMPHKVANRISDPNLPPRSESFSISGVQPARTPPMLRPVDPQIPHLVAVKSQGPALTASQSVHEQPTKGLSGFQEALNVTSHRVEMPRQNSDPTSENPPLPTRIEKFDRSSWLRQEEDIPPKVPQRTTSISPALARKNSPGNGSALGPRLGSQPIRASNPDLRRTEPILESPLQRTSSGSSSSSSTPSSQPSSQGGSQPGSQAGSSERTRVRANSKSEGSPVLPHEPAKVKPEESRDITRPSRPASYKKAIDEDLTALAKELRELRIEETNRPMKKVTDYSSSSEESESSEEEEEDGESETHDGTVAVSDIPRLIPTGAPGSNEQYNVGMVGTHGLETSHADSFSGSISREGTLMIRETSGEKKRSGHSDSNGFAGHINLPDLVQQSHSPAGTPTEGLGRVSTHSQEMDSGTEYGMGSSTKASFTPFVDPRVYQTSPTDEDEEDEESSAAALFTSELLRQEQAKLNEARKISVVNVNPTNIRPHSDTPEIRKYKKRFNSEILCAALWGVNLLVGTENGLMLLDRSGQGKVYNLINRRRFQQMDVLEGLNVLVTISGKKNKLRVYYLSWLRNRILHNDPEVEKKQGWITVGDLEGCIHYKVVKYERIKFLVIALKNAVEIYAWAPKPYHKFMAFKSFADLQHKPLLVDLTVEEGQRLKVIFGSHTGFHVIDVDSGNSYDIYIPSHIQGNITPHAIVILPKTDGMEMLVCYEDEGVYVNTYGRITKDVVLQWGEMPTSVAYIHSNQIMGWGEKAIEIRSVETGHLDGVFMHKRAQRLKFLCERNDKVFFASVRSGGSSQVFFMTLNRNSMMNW
UniProt Q9NS69: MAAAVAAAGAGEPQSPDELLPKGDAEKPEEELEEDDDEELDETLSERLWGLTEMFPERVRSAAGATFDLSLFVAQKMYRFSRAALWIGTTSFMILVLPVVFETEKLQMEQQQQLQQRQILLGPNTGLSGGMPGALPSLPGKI
UniProt P09493, whole entry, looked up: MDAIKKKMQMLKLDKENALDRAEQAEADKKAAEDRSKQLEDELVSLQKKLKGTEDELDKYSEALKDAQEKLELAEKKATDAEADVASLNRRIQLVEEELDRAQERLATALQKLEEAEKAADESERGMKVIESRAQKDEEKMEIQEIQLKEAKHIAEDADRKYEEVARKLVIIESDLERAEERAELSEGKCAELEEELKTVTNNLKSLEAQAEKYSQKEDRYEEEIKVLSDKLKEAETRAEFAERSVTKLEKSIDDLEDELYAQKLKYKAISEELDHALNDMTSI
UniProt O60784, whole entry, looked up: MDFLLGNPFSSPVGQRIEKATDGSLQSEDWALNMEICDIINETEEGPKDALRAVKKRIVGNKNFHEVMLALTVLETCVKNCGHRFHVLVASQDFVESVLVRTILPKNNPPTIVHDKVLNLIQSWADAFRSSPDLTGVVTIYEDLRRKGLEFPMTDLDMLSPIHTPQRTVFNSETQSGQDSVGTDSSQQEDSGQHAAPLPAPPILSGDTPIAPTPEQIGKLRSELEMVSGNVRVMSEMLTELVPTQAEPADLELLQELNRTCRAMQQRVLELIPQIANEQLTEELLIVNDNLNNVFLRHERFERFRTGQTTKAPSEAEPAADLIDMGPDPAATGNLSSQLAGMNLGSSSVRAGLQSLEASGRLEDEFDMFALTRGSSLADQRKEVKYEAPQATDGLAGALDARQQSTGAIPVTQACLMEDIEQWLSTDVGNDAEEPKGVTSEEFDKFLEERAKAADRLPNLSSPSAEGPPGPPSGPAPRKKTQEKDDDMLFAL
UniProt Q96MH6: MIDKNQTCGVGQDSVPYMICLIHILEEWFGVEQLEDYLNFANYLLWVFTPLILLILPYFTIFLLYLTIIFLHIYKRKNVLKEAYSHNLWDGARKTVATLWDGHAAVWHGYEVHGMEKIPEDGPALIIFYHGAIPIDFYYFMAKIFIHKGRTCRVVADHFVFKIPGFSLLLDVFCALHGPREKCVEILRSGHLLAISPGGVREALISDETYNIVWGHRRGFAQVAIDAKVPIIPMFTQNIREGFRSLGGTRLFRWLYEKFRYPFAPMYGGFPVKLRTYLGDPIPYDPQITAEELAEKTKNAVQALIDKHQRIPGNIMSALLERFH
UniProt P06753, whole entry, looked up: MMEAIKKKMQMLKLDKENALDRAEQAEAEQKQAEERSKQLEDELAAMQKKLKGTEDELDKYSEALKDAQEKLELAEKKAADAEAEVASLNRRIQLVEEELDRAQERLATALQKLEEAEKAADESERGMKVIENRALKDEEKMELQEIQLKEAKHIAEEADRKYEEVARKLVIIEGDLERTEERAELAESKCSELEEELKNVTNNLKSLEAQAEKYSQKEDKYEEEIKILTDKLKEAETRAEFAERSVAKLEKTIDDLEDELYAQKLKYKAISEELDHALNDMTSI
UniProt O94826, whole entry, looked up: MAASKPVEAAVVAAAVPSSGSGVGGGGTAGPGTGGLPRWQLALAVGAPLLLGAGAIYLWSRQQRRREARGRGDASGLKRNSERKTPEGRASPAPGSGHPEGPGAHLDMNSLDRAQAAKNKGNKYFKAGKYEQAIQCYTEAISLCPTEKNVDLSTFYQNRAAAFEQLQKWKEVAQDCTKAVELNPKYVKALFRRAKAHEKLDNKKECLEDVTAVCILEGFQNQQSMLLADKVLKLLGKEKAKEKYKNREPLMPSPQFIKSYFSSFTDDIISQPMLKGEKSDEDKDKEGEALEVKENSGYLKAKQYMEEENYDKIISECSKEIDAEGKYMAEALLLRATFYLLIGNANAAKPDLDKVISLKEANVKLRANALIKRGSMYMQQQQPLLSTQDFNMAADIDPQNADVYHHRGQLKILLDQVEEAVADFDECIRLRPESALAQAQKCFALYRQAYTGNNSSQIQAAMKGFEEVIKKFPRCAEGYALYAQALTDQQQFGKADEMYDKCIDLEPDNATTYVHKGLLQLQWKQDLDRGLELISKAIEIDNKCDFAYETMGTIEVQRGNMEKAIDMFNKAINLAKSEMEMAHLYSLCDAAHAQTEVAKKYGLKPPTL
UniProt Q86XT9, whole entry, looked up: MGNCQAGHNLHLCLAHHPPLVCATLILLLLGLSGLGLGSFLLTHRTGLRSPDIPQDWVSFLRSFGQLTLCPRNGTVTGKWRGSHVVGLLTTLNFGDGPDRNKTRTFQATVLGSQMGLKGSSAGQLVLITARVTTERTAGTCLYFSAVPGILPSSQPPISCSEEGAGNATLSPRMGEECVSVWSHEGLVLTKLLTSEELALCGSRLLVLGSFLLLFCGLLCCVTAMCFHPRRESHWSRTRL
UniProt P51580: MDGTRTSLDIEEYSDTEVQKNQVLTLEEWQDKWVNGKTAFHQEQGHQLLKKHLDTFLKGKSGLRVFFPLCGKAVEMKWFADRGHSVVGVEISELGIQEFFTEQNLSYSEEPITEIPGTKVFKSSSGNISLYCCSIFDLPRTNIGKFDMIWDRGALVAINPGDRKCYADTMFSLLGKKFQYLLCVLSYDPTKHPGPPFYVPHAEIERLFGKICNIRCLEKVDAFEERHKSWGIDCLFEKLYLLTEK
UniProt P67936, whole entry, looked up: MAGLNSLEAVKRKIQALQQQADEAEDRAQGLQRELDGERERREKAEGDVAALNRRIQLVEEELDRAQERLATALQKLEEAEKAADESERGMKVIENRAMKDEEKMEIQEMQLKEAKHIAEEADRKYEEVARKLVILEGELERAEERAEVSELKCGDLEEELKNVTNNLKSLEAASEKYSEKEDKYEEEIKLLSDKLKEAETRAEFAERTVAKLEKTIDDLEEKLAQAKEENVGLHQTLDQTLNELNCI
UniProt P20333, whole entry, looked up: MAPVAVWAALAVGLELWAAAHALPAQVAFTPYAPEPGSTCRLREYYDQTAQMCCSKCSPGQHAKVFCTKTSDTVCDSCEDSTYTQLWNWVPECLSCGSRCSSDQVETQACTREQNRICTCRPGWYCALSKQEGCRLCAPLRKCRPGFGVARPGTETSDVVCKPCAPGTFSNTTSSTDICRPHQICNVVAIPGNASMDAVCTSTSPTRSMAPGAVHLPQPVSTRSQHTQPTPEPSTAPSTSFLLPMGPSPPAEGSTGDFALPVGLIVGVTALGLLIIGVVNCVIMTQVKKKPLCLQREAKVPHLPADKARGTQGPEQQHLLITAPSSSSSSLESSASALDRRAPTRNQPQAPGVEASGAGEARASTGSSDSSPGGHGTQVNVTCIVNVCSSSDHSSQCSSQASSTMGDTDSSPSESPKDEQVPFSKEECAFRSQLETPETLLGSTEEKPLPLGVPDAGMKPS
UniProt P28289: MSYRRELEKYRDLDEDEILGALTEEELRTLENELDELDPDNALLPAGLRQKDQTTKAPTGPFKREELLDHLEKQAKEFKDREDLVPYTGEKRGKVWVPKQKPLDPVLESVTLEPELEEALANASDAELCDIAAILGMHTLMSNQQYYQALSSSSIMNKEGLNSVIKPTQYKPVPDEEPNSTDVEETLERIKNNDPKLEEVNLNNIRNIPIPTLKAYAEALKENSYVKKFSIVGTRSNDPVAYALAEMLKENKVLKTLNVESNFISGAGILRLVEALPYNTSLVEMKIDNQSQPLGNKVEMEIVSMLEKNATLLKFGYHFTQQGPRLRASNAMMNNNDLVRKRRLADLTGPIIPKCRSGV

These targets were tested with CN1CCN(c2nc(C3=C(c4c[nH]c5ccccc45)C(=O)NC3=O)c3ccccc3n2)CC1 [sotrastaurin] (assay: log2 fold change, soluble protein after heating vs DMSO (PISA); higher = thermal stabilisation; K562 lysate, 10 uM; active = over 0.2 and 3.5 SD of the protein, either way, in both replicates (recomputed)).
Procedure, shortened: (§1)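 The values are log-two fold changes in thermal stability compared with solvent controls and come from duplicates. They were obtained by TMTpro 16plex LC-MS/MS, with channel sums equalised, on the supernatant after 21,000xg for 90 min. That supernatant came from crude K562 extract at 1 mg/mL protein treated with 10 μM compound for 30 min, heated for 3 min across 48°C-58°C, pooled and brought to 0.5% NP-40 at 4°C.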
TMX3 (UniProt Q96JJ7) was tested, and the log2 fold change was inactive: -0.003. With TOR3A (UniProt Q9H497) the log2 fold change was inactive: 0.03. With TMEM63B (UniProt Q5T3F8) the log2 fold change was inactive: -0.038. In the case of TPP2 (UniProt P29144), the log2 fold change is reported as inactive: -0.009. TPP1 (UniProt O14773) was tested, and the log2 fold change was inactive: 0.033. TNIK isoform 4 (UniProt Q9UKE5) was tested, and the log2 fold change was inactive: 0.056. For TPD52L2 isoform 7 (UniProt O43399), the log2 fold change was inactive: 0.034. With TMEM38B (UniProt Q9NVV0) the log2 fold change was inactive: 0.042. With TRA2A (UniProt Q13595) the log2 fold change was inactive: 0. In the case of TOMM22 (UniProt Q9NS69), the log2 fold change is reported as inactive: -0.029. TPM1 isoform 4 (UniProt P09493) was tested, and the log2 fold change was inactive: -0.012. With TOM1 isoform 2 (UniProt O60784) the log2 fold change was inactive: -0.008. TMOD3 (UniProt Q9NYL9) was tested, and the log2 fold change was inactive: 0.016. With TMEM97 (UniProt Q5BJF2) the log2 fold change was inactive: -0.08. With TMEM68 (UniProt Q96MH6) the log2 fold change was inactive: -0.003. In the case of TPM3 isoform 2 (UniProt P06753), the log2 fold change is reported as inactive: 0.025. TPX2 (UniProt Q9ULW0) was tested, and the log2 fold change was inactive: -0.016. In the case of TOP1 (UniProt P11387), the log2 fold change is reported as inactive: 0.028. TNIP1 (UniProt Q15025) was tested, and the log2 fold change was inactive: 0.022. With TOMM70 (UniProt O94826) the log2 fold change was inactive: 0.005. With TMEM219 (UniProt Q86XT9) the log2 fold change was inactive: -0.014. TPMT (UniProt P51580) was tested, and the log2 fold change was inactive: -0.028. For TP53I3 (UniProt Q53FA7), the log2 fold change was inactive: -0.02. For TPST2 (UniProt O60704), the log2 fold change was inactive: 0.065. For TOP2B isoform 2 (UniProt Q02880), the log2 fold change was inactive: 0.018. For TPM3 (UniProt P06753), the log2 fold change was inactive: -0.031. For TPM4 isoform 2 (UniProt P67936), the log2 fold change was inactive: -0.03. With TPI1 (UniProt P60174) the log2 fold change was inactive: -0.039. In the case of TMEM87B (UniProt Q96K49), the log2 fold change is reported as inactive: 0.026. TNFRSF1B (UniProt P20333) was tested, and the log2 fold change was inactive: 0.013. With TMEM245 (UniProt Q9H330) the log2 fold change was inactive: 0.038. In the case of TONSL (UniProt Q96HA7), the log2 fold change is reported as inactive: 0.055. TMOD1 (UniProt P28289) was tested, and the log2 fold change was inactive: -0.017.

These targets were tested with CN1CC[C@H](c2c(O)cc(O)c3c(=O)cc(-c4ccccc4Cl)oc23)[C@H](O)C1 [alvocidib] in the same assay as above.
Procedure, shortened: as §1
For TMX3 (UniProt Q96JJ7), the log2 fold change was inactive: -0.012. For TOR3A (UniProt Q9H497), the log2 fold change was inactive: 0.01. For TMEM63B (UniProt Q5T3F8), the log2 fold change was inactive: -0.01. For TPP2 (UniProt P29144), the log2 fold change was inactive: 0.018. In the case of TPP1 (UniProt O14773), the log2 fold change is reported as inactive: 0.014. For TNIK isoform 4 (UniProt Q9UKE5), the log2 fold change was inactive: -0.015. For TPD52L2 isoform 7 (UniProt O43399), the log2 fold change was inactive: -0.043. In the case of TMEM38B (UniProt Q9NVV0), the log2 fold change is reported as inactive: -0.102. TRA2A (UniProt Q13595) was tested, and the log2 fold change was inactive: -0.007. In the case of TOMM22 (UniProt Q9NS69), the log2 fold change is reported as inactive: 0.002. TPM1 isoform 4 (UniProt P09493) was tested, and the log2 fold change was inactive: 0.017. With TOM1 isoform 2 (UniProt O60784) the log2 fold change was inactive: -0.005. In the case of TMOD3 (UniProt Q9NYL9), the log2 fold change is reported as inactive: -0.035. With TMEM97 (UniProt Q5BJF2) the log2 fold change was inactive: -0.081. In the case of TMEM68 (UniProt Q96MH6), the log2 fold change is reported as inactive: -0.004. TPM3 isoform 2 (UniProt P06753) was tested, and the log2 fold change was inactive: 0.03. For TPX2 (UniProt Q9ULW0), the log2 fold change was inactive: -0.002. For TOP1 (UniProt P11387), the log2 fold change was inactive: 0.011. For TNIP1 (UniProt Q15025), the log2 fold change was inactive: -0.009. With TOMM70 (UniProt O94826) the log2 fold change was inactive: 0.007. For TMEM219 (UniProt Q86XT9), the log2 fold change was inactive: -0.004. For TPMT (UniProt P51580), the log2 fold change was inactive: 0.008. For TP53I3 (UniProt Q53FA7), the log2 fold change was inactive: 0.01. In the case of TPST2 (UniProt O60704), the log2 fold change is reported as inactive: -0.107. For TOP2B isoform 2 (UniProt Q02880), the log2 fold change was inactive: 0.092. For TPM3 (UniProt P06753), the log2 fold change was inactive: 0.048. In the case of TPM4 isoform 2 (UniProt P67936), the log2 fold change is reported as inactive: 0.062. For TPI1 (UniProt P60174), the log2 fold change was inactive: -0.048. With TMEM87B (UniProt Q96K49) the log2 fold change was inactive: 0.035. TNFRSF1B (UniProt P20333) was tested, and the log2 fold change was inactive: -0.092. TMEM245 (UniProt Q9H330) was tested, and the log2 fold change was inactive: -0.056. TONSL (UniProt Q96HA7) was tested, and the log2 fold change was inactive: -0.106. With TMOD1 (UniProt P28289) the log2 fold change was inactive: 0.017.

The targets below were run with CN1CCc2c(c3ccccc3n2Cc2ccc(C(=O)NO)cc2)C1 [Tubastatin A] in the same assay as above.
Procedure, shortened: as §1
With TMX3 (UniProt Q96JJ7) the log2 fold change was inactive: 0.014. For TOR3A (UniProt Q9H497), the log2 fold change was inactive: -0.016. For TMEM63B (UniProt Q5T3F8), the log2 fold change was inactive: 0.008. With TPP2 (UniProt P29144) the log2 fold change was inactive: -0.028. TPP1 (UniProt O14773) was tested, and the log2 fold change was inactive: -0.077. For TNIK isoform 4 (UniProt Q9UKE5), the log2 fold change was inactive: -0.071. With TPD52L2 isoform 7 (UniProt O43399) the log2 fold change was inactive: 0.062. TMEM38B (UniProt Q9NVV0) was tested, and the log2 fold change was inactive: 0.038. For TRA2A (UniProt Q13595), the log2 fold change was inactive: -0.079. In the case of TOMM22 (UniProt Q9NS69), the log2 fold change is reported as inactive: 0.046. For TPM1 isoform 4 (UniProt P09493), the log2 fold change was inactive: 0.073. TOM1 isoform 2 (UniProt O60784) was tested, and the log2 fold change was inactive: 0.023. With TMOD3 (UniProt Q9NYL9) the log2 fold change was inactive: 0.031. TMEM97 (UniProt Q5BJF2) was tested, and the log2 fold change was inactive: 0.114. With TMEM68 (UniProt Q96MH6) the log2 fold change was inactive: -0.019. TPM3 isoform 2 (UniProt P06753) was tested, and the log2 fold change was inactive: 0.033. In the case of TPX2 (UniProt Q9ULW0), the log2 fold change is reported as inactive: -0.129. With TOP1 (UniProt P11387) the log2 fold change was inactive: -0.066. With TNIP1 (UniProt Q15025) the log2 fold change was inactive: -0.017. In the case of TOMM70 (UniProt O94826), the log2 fold change is reported as inactive: -0.005. TMEM219 (UniProt Q86XT9) was tested, and the log2 fold change was inactive: 0.063. TPMT (UniProt P51580) was tested, and the log2 fold change was inactive: -0.032. For TP53I3 (UniProt Q53FA7), the log2 fold change was inactive: -0.008. For TPST2 (UniProt O60704), the log2 fold change was inactive: 0.059. For TOP2B isoform 2 (UniProt Q02880), the log2 fold change was inactive: -0.039. For TPM3 (UniProt P06753), the log2 fold change was inactive: 0.049. In the case of TPM4 isoform 2 (UniProt P67936), the log2 fold change is reported as inactive: 0.03. In the case of TPI1 (UniProt P60174), the log2 fold change is reported as inactive: 0.079. For TMEM87B (UniProt Q96K49), the log2 fold change was inactive: 0.044. For TNFRSF1B (UniProt P20333), the log2 fold change was inactive: -0.005. With TMEM245 (UniProt Q9H330) the log2 fold change was inactive: -0.033. For TONSL (UniProt Q96HA7), the log2 fold change was inactive: -0.155. With TMOD1 (UniProt P28289) the log2 fold change was inactive: -0.081.
